Data: patent publication US12419871B2, “Biomolecules involved in Alzheimer's disease” (ELECTROPHORETICS LIMITED, priority 2015, dated 2025)

B1: Q02790 (protein, UniProt Q02790 1-459, looked up)
chain: MTAEEMKATESGAQSAPLPMEGVDISPKQDEGVLKVIKREGTGTEMPMIGDRVFVHYTGWLLDGTKFDSSLDRKDKFSFDLGKGEVIKAWDIAIATMKVGEVCHITCKPEYAYGSAGSPPKIPPNATLVFEVELFEFKGEDLTEEEDGGIIRRIQTRGEGYAKPNEGAIVEVALEGYYKDKLFDQRELRFEIGEGENLDLPYGLERAIQRMEKGEHSIVYLKPSYAFGSVGKEKFQIPPNAELKYELHLKSFEKAKESWEMNSEEKLEQSTIVKERGTVYFKEGKYKQALLQYKKIVSWLEYESSFSNEEAQKAQALRLASHLNLAMCHLKLQAFSAAIESCNKALELDSNNEKGLFRRGEAHLAVNDFELARADFQKVLQLYPNNKAAKTQLAVCQQRIRRQLAREKKLYANMFERLAEEENKAKAEASSGDHPTDTEMKEEQKSNTAGSQSQVETEA
modifications: full-length
B2: P15259 (protein, UniProt P15259 1-253, looked up)
chain: MATHRLVMVRHGESTWNQENRFCGWFDAELSEKGTEEAKRGAKAIKDAKMEFDICYTSVLKRAIRTLWAILDGTDQMWLPVVRTWRLNERHYGGLTGLNKAETAAKHGEEQVKIWRRSFDIPPPPMDEKHPYYNSISKERRYAGLKPGELPTCESLKDTIARALPFWNEEIVPQIKAGKRVLIAAHGNSLRGIVKHLEGMSDQAIMELNLPTGIPIVYELNKELKPTKPMQFLGDEETVRKAMEAVAAQGKAK
modifications: full-length
B3: Q9BZF1 (protein, UniProt Q9BZF1 1-889, looked up)
chain: MEGGLADGEPDRTSLLGDSKDVLGPSTVVANSDESQLLTPGKMSQRQGKEAYPTPTKDLHQPSLSPASPHSQGFERGKEDISQNKDESSLSMSKSKSESKLYNGSEKDSSTSSKLTKKESLKVQKKNYREEKKRATKELLSTITDPSVIVMADWLKIRGTLKSWTKLWCVLKPGVLLIYKTQKNGQWVGTVLLNACEIIERPSKKDGFCFKLFHPLEQSIWAVKGPKGEAVGSITQPLPSSYLIIRATSESDGRCWMDALELALKCSSLLKRTMIREGKEHDLSVSSDSTHVTFYGLLRANNLHSGDNFQLNDSEIERQHFKDQDMYSDKSDKENDQEHDESDNEVMGKSEESDTDTSERQDDSYIEPEPVEPLKETTYTEQSHEELGEAGEASQTETVSEENKSLIWTLLKQVRPGMDLSKVVLPTFILEPRSFLDKLSDYYYHADFLSEAALEENPYFRLKKVVKWYLSGFYKKPKGLKKPYNPILGETFRCLWIHPRTNSKTFYIAEQVSHHPPISAFYVSNRKDGFCLSGSILAKSKFYGNSLSAILEGEARLTFLNRGEDYVMTMPYAHCKGILYGTMTLELGGTVNITCQKTGYSAILEFKLKPFLGSSDCVNQISGKLKLGKEVLATLEGHWDSEVFITDKKTDNSEVFWNPTPDIKQWRLIRHTVKFEEQGDFESEKLWQRVTRAINAKDQTEATQEKYVLEEAQRQAARDRKTKNEEWSCKLFELDPLTGEWHYKFADTRPWDPLNDMIQFEKDGVIQTKVKHRTPMVSVPKMKHKPTRQQKKVAKGYSSPEPDIQDSSGSEAQSVKPSTRRKKGIELGDIQSSIESIKQTQEEIKRNIMALRNHLVSSTPATDYFLQQKDYFIIFLLILLQVIINFMFK
modifications: full-length
B4: P11766 (protein, UniProt P11766 1-374, looked up)
chain: MANEVIKCKAAVAWEAGKPLSIEEIEVAPPKAHEVRIKIIATAVCHTDAYTLSGADPEGCFPVILGHEGAGIVESVGEGVTKLKAGDTVIPLYIPQCGECKFCLNPKTNLCQKIRVTQGKGLMPDGTSRFTCKGKTILHYMGTSTFSEYTVVADISVAKIDPLAPLDKVCLLGCGISTGYGAAVNTAKLEPGSVCAVFGLGGVGLAVIMGCKVAGASRIIGVDINKDKFARAKEFGATECINPQDFSKPIQEVLIEMTDGGVDYSFECIGNVKVMRAALEACHKGWGVSVVVGVAASGEEIATRPFQLVTGRTWKGTAFGGWKSVESVPKLVSEYMSKKIKVDEFVTHNLSFDEINKAFELMHSGKSIRTVVKI
modifications: full-length
B5: Q9GZP4 (protein, UniProt Q9GZP4 1-211, looked up)
chain: MSHGHSHGGGGCRCAAEREEPPEQRGLAYGLYLRIDLERLQCLNESREGSGRGVFKPWEERTDRSKFVESDADEELLFNIPFTGNVKLKGIIIMGEDDDSHPSEMRLYKNIPQMSFDDTEREPDQTFSLNRDLTGELEYATKISRFSNVYHLSIHISKNFGADTTKVFYIGLRGEWTELRRHEVTICNYEASANPADHRVHQVTPQTHFIS
modifications: full-length
B6: Q9H008 (protein, UniProt Q9H008 1-270, looked up)
chain: MAPWGKRLAGVRGVLLDISGVLYDSGAGGGTAIAGSVEAVARLKRSRLKVRFCTNESQKSRAELVGQLQRLGFDISEQEVTAPAPAACQILKEQGLRPYLLIHDGVRSEFDQIDTSNPNCVVIADAGESFSYQNMNNAFQVLMELEKPVLISLGKGRYYKETSGLMLDVGPYMKALEYACGIKAEVVGKPSPEFFKSALQAIGVEAHQAVMIGDDIVGDVGGAQRCGMRALQVRTGKFRPSDEHHPEVKADGYVDNLAEAVDLLLQHADK
modifications: full-length
B7: Q96HC4 (protein, UniProt Q96HC4 1-596, looked up)
chain: MSNYSVSLVGPAPWGFRLQGGKDFNMPLTISSLKDGGKAAQANVRIGDVVLSIDGINAQGMTHLEAQNKIKGCTGSLNMTLQRASAAPKPEPVPVQKGEPKEVVKPVPITSPAVSKVTSTNNMAYNKAPRPFGSVSSPKVTSIPSPSSAFTPAHATTSSHASPSPVAAVTPPLFAASGLHANANLSADQSPSALSAGKTAVNVPRQPTVTSVCSETSQELAEGQRRGSQGDSKQQNGPPRKHIVERYTEFYHVPTHSDASKKRLIEDTEDWRPRTGTTQSRSFRILAQITGTEHLKESEADNTKKANNSQEPSPQLASSVASTRSMPESLDSPTSGRPGVTSLTAAAAFKPVGSTGVIKSPSWQRPNQGVPSTGRISNSATYSGSVAPANSALGQTQPSDQDTLVQRAEHIPAGKRTPMCAHCNQVIRGPFLVALGKSWHPEEFNCAHCKNTMAYIGFVEEKGALYCELCYEKFFAPECGRCQRKILGEVISALKQTWHVSCFVCVACGKPIRNNVFHLEDGEPYCETDYYALFGTICHGCEFPIEAGDMFLEALGYTWHDTCFVCSVCCESLEGQTFFSKKDKPLCKKHAHSVNF
modifications: full-length
B8: O14936 (protein, UniProt O14936 1-926, looked up)
chain: MADDDVLFEDVYELCEVIGKGPFSVVRRCINRETGQQFAVKIVDVAKFTSSPGLSTEDLKREASICHMLKHPHIVELLETYSSDGMLYMVFEFMDGADLCFEIVKRADAGFVYSEAVASHYMRQILEALRYCHDNNIIHRDVKPHCVLLASKENSAPVKLGGFGVAIQLGESGLVAGGRVGTPHFMAPEVVKREPYGKPVDVWGCGVILFILLSGCLPFYGTKERLFEGIIKGKYKMNPRQWSHISESAKDLVRRMLMLDPAERITVYEALNHPWLKERDRYAYKIHLPETVEQLRKFNARRKLKGAVLAAVSSHKFNSFYGDPPEELPDFSEDPTSSGLLAAERAVSQVLDSLEEIHALTDCSEKDLDFLHSVFQDQHLHTLLDLYDKINTKSSPQIRNPPSDAVQRAKEVLEEISCYPENNDAKELKRILTQPHFMALLQTHDVVAHEVYSDEALRVTPPPTSPYLNGDSPESANGDMDMENVTRVRLVQFQKNTDEPMGITLKMNELNHCIVARIMHGGMIHRQGTLHVGDEIREINGISVANQTVEQLQKMLREMRGSITFKIVPSYRTQSSSCERDSPSTSRQSPANGHSSTNNSVSDLPSTTQPKGRQIYVRAQFEYDPAKDDLIPCKEAGIRFRVGDIIQIISKDDHNWWQGKLENSKNGTAGLIPSPELQEWRVACIAMEKTKQEQQASCTWFGKKKKQYKDKYLAKHNAVFDQLDLVTYEEVVKLPAFKRKTLVLLGAHGVGRRHIKNTLITKHPDRFAYPIPHTTRPPKKDEENGKNYYFVSHDQMMQDISNNEYLEYGSHEDAMYGTKLETIRKIHEQGLIAILDVEPQALKVLRTAEFAPFVVFIAAPTITPGLNEDESLQRLQKESDILQRTYAHYFDLTIINNEIDETIRHLEEAVELVCTAPQWVPVSWVY
modifications: full-length
B9: Q5SRE7 (protein, UniProt Q5SRE7 1-291, looked up)
chain: MACLSPSQLQKFQQDGFLVLEGFLSAEECVAMQQRIGEIVAEMDVPLHCRTEFSTQEEEQLRAQGSTDYFLSSGDKIRFFFEKGVFDEKGNFLVPPEKSINKIGHALHAHDPVFKSITHSFKVQTLARSLGLQMPVVVQSMYIFKQPHFGGEVSPHQDASFLYTEPLGRVLGVWIAVEDATLENGCLWFIPGSHTSGVSRRMVRAPVGSAPGTSFLGSEPARDNSLFVPTPVQRGALVLIHGEVVHKSKQNLSDRSRQAYTFHLMEASGTTWSPENWLQPTAELPFPQLYT
modifications: full-length
B10: A6NDG6 (protein, UniProt A6NDG6 1-321, looked up)
chain: MAAAEAGGDDARCVRLSAERAQALLADVDTLLFDCDGVLWRGETAVPGAPEALRALRARGKRLGFITNNSSKTRAAYAEKLRRLGFGGPAGPGASLEVFGTAYCTALYLRQRLAGAPAPKAYVLGSPALAAELEAVGVASVGVGPEPLQGEGPGDWLHAPLEPDVRAVVVGFDPHFSYMKLTKALRYLQQPGCLLVGTNMDNRLPLENGRFIAGTGCLVRAVEMAAQRQADIIGKPSRFIFDCVSQEYGINPERTVMVGDRLDTDILLGATCGLKTILTLTGVSTLGDVKNNQESDCVSKKKMVPDFYVDSIADLLPALQG
modifications: full-length
B11: Q9UBV8 (protein, UniProt Q9UBV8 1-284, looked up)
chain: MASYPYRQGCPGAAGQAPGAPPGSYYPGPPNSGGQYGSGLPPGGGYGGPAPGGPYGPPAGGGPYGHPNPGMFPSGTPGGPYGGAAPGGPYGQPPPSSYGAQQPGLYGQGGAPPNVDPEAYSWFQSVDSDHSGYISMKELKQALVNCNWSSFNDETCLMMINMFDKTKSGRIDVYGFSALWKFIQQWKNLFQQYDRDRSGSISYTELQQALSQMGYNLSPQFTQLLVSRYCPRSANPAMQLDRFIQVCTQLQVLTEAFREKDTAVQGNIRLSFEDFVTMTASRML
modifications: full-length
B12: Q9Y285 (protein, UniProt Q9Y285 1-508, looked up)
chain: MADGQVAELLLRRLEASDGGLDSAELAAELGMEHQAVVGAVKSLQALGEVIEAELRSTKHWELTAEGEEIAREGSHEARVFRSIPPEGLAQSELMRLPSGKVGFSKAMSNKWIRVDKSAADGPRVFRVVDSMEDEVQRRLQLVRGGQAEKLGEKERSELRKRKLLAEVTLKTYWVSKGSAFSTSISKQETELSPEMISSGSWRDRPFKPYNFLAHGVLPDSGHLHPLLKVRSQFRQIFLEMGFTEMPTDNFIESSFWNFDALFQPQQHPARDQHDTFFLRDPAEALQLPMDYVQRVKRTHSQGGYGSQGYKYNWKLDEARKNLLRTHTTSASARALYRLAQKKPFTPVKYFSIDRVFRNETLDATHLAEFHQIEGVVADHGLTLGHLMGVLREFFTKLGITQLRFKPAYNPYTEPSMEVFSYHQGLKKWVEVGNSGVFRPEMLLPMGLPENVSVIAWGLSLERPTMIKYGINNIRELVGHKVNLQMVYDSPLCRLDAEPRPPPTQEAA
modifications: full-length

Assay: TMTcalibrator quantification of regulated proteins in AD CSF versus control
Set-up: species or system human
Conditions: CSF of AD patient versus control; non-modified peptides of each protein summed for three control and three AD cases

| Molecule | Log2 AD/Control |
| --- | --- |
| B1 | 0.73 |
| B2 | 1.12 |
| B3 | 0.78 |
| B4 | 0.87 |
| B5 | 0.71 |
| B6 | 0.74 |
| B7 | 0.75 |
| B8 | 1.07 |
| B9 | 0.65 |
| B10 | 1.05 |
| B11 | 0.98 |
| B12 | 0.72 |
